Results are given in words; binding and its absence hold for the method and conditions named. Binding seen in cells or lysates may run through a third protein. A result given as binding can be weak or reduced; the word gives no strength. Sequences can lack the tags named with a protein.
Target: Bcl-2 GST fusion protein (UniProt P10415)
Experiment: pull-down; GST-Bcl-2 or GST bound to glutathione-agarose, incubated overnight with lysates of LV-HA-SPK2- or vector-infected HT22 cells; blotted with anti-HA; only the target purified

Sequences of proteins named here, by UniProt entry; tags and fusion partners are left off. A change or cut given only in a name is not applied to a line headed by its entry.
UniProt P10415: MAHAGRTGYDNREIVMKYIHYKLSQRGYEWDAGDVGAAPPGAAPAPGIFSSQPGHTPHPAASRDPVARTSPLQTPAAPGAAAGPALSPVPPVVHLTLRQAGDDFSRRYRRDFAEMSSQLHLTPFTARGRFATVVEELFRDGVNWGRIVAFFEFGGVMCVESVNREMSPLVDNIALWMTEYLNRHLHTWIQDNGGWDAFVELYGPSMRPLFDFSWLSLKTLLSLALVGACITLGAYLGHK

binding: binds
B1: sphingosine kinase 2 (SPK2), HA-tagged, mouse (enzyme, UniProt Q9JIA7 1-617)
chain: MAPPPLLPVAASTPILHGEFGSYPANGPRFALTLTTQALHIQRLRPKPEARPRDGLVSLDEVSGCGTLQSRSPEDTAAYFCIYTYPRGRRGGRRRATRTFRADGATTYEENRAEAQRWATALTCLLRGVPLSGDQEITPELLPRKPRLLILVNPFGGRGLAWQRCMDHVVPMISEAGLSFNLIQTERQNHARELVQGLSLSEWEGIVTVSGDGLLYEVLNGLLDRPDWEDAVRMPIGVLPCGSGNALAGAVNHHGGFEQVVGVDLLLNCSLLLCRGGSHPLDLLSVTLASGSRCFSFLSVAWGFLSDVDIHSERFRALGSARFTLGAVLGLASLHTYRGRLSYLPATTEPALPIPGHSLPRAKSELVLAPAPAPAATHSPLHRSVSDLPLPLPQPALVSPGSPEPLPDLSLNGGGPELTGDWGGAGDAPLSPDPLLPSSPNALKTAQLSPIAEGPPEMPASSGFLPPTHSAPEASTWGPVDHLLPPLGSPLPQDWVTIEGEFVLMLGILPSHLCADLMAAPHARFDDGVVHLCWVRSGISRAALLRILLAMEHGNHFSLGCPHLGYAAARAFRLEPLTPRGLLTVDGELVEYGPIQAQVHPGLATLLTGPAGQKPQA

Reference: PMC5550846
